# Reference: the supplement of paper PMC4604168 (melanoma cell lines)
# Some of the results follow. Many values rest on one well or one pass, so single values are uncertain.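 Cells were imaged in 1,536-well plates, and nuclei stained with an antibody against cleaved PARP were counted against all DNA-stained nuclei to give the apoptosis fraction. Screening doses were chosen to leave most cells alive, and resting and induced cleaved-PARP levels differ strongly between cell lines.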
# Tests used:
# Test in all cases: cleaved PARP positive nuclei fraction relative to DMSO control; melanoma cells; higher = more apoptosis
# Details in all cases: library dose: low library concentration; 72 h
# MZ2-MEL = test system: MZ2-MEL
# MeWo = test system: MeWo
# RPMI7951 = test system: RPMI7951
# RVH-421 = test system: RVH-421
# SkMel28 = test system: SkMel28
# SkMel2 = test system: SkMel2
# SkMel30 = test system: SkMel30
# SkMel5 = test system: SkMel5
# UACC257 = test system: UACC257
# UACC62 = test system: UACC62
# WM115 = test system: WM115
# WM1716 = test system: WM1716
# WM1745 = test system: WM1745
# WM3526 = test system: WM3526
# WM3619 = test system: WM3619
# WM451Lu = test system: WM451Lu
Compound,cleaved PARP positive nuclei fraction (MZ2-MEL) [%],cleaved PARP positive nuclei fraction (MeWo) [%],cleaved PARP positive nuclei fraction (RPMI7951) [%],cleaved PARP positive nuclei fraction (RVH-421) [%],cleaved PARP positive nuclei fraction (SkMel28) [%],cleaved PARP positive nuclei fraction (SkMel2) [%],cleaved PARP positive nuclei fraction (SkMel30) [%],cleaved PARP positive nuclei fraction (SkMel5) [%],cleaved PARP positive nuclei fraction (UACC257) [%],cleaved PARP positive nuclei fraction (UACC62) [%],cleaved PARP positive nuclei fraction (WM115) [%],cleaved PARP positive nuclei fraction (WM1716) [%],cleaved PARP positive nuclei fraction (WM1745) [%],cleaved PARP positive nuclei fraction (WM3526) [%],cleaved PARP positive nuclei fraction (WM3619) [%],cleaved PARP positive nuclei fraction (WM451Lu) [%]
"Nc1ccn([C@@H]2O[C@H](CO)[C@@H](O)C2(F)F)c(=O)n1 [gemcitabine] + c1cc(-c2cnn3cc(-c4ccc(OCCN5CCCCC5)cc4)cnc23)ccn1 [Dorsomorphin] (first compound 0.0004 µM, partner dose 0.4 µM)",159,84.8,23.4,79.3,10.4,59.1,34.8,41.9,151,70.5,44.7,43.1,125,145,134,151
"Cn1c(=O)n(-c2ccc(C(C)(C)C#N)cc2)c2c3cc(-c4cnc5ccccc5c4)ccc3ncc21 + C[C@@H]1CCN(C(=O)CC#N)C[C@@H]1N(C)c1ncnc2[nH]ccc12 [CP690550] (first compound 0.004 µM, partner dose 1 µM)",119,56,38.4,208,82.4,86.6,165,61.4,173,226,16.8,114,102,61.5,208,91.3
"CCCS(=O)(=O)Nc1ccc(F)c(C(=O)c2c[nH]c3ncc(Cl)cc23)c1F + COc1ccc2c(c1)CCC1C2CCC2(C)C(NCCCCCCN3C(=O)C=CC3=O)CCC12 [U73122] (first compound 0.08 µM, partner dose 0.4 µM)",95.1,56.3,34.7,104,164,133,135,68.6,147,292,110,63,67.5,70.8,93.7,73.6
"Nc1ncn([C@H]2C[C@H](O)[C@@H](CO)O2)c(=O)n1 [decitabine] + Oc1cc(-c2nc(-c3ccccc3)[nH]c2-c2ccncc2)ccc1Cl [L779450] (first compound 0.1 µM, partner dose 0.2 µM)",57.9,87.2,59.8,30.8,131,153,33.5,70.1,414,217,142,276,91.9,94.1,123,240
"Cn1c(=O)n(-c2ccc(C(C)(C)C#N)cc2)c2c3cc(-c4cnc5ccccc5c4)ccc3ncc21 + O=C(O)c1ccc(-c2c[nH]c3ncc(-c4ccccc4)cc23)cc1C1CCCC1 [GSK650394] (first compound 0.004 µM, partner dose 0.16 µM)",221,63.7,72.3,30.8,366,130,70.9,30.7,97,258,41.9,90.4,98.5,181,114,182
"Cn1c(=O)n(-c2ccc(C(C)(C)C#N)cc2)c2c3cc(-c4cnc5ccccc5c4)ccc3ncc21 + Cc1ccc(NC(=O)c2cccc(N(C)C)c2)cc1NC(=O)c1ccc(O)cc1 [ZM336372] (first compound 0.004 µM, partner dose 2 µM)",45.9,82.1,149,100,62.3,68.2,67.3,144,193,293,109,81.2,97.1,65.6,100,95.3
"Nc1ncn([C@H]2C[C@H](O)[C@@H](CO)O2)c(=O)n1 [decitabine] + c1cc(-c2cnn3cc(-c4ccc(OCCN5CCCCC5)cc4)cnc23)ccn1 [Dorsomorphin] (first compound 0.1 µM, partner dose 0.4 µM)",70.2,41.5,128,64.2,165,40,311,65.2,39.8,122,138,50.3,88,81.8,171,46.7
"Nc1ccn([C@@H]2O[C@H](CO)[C@@H](O)C2(F)F)c(=O)n1 [gemcitabine] + COc1ccc2c(c1)CCC1C2CCC2(C)C(NCCCCCCN3C(=O)C=CC3=O)CCC12 [U73122] (first compound 0.0004 µM, partner dose 0.4 µM)",150,110,41.5,102,46.4,81.7,82.5,66.3,59.8,177,77.5,102,124,182,143,36.8
"Nc1ccn([C@@H]2O[C@H](CO)[C@@H](O)C2(F)F)c(=O)n1 [gemcitabine] + CN(NC(=O)CC(=O)NN(C)C(=S)c1ccccc1)C(=S)c1ccccc1 [STA4783] (first compound 0.0004 µM, partner dose 0.006 µM)",117,77.7,97.9,85.3,137,141,568,133,63.2,42.9,223,133,311,118,162,211
